Data from PMC8151980.
Results are given in words; binding and its absence hold for the method and conditions named. In cells and extracts the contact can be indirect. Binding calls can cover weak binding; strength is not graded here. For some assays here: Sequences can lack the tags named with a protein.

By UniProt entry, the sequences of proteins in these tests, tags left out. Where a name states a change or a piece, a line headed by the entry shows the natural chain unless it says otherwise.
UniProt Q94EH2: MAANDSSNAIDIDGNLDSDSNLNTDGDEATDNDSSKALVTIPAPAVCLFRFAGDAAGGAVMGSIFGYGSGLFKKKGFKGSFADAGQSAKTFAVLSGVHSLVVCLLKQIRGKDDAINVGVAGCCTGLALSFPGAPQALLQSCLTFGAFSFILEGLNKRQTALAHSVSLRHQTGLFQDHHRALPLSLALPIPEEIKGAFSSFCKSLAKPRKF
UniProt Q6NKU9: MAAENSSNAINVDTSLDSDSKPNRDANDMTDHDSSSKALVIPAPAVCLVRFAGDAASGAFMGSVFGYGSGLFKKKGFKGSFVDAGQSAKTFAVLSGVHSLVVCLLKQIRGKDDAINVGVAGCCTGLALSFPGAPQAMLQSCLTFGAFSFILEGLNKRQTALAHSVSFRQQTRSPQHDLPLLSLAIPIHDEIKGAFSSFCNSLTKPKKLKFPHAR

Tests used:
[1] = target: T1, HP65b (At5g55220) (Arabidopsis thaliana (endogenous in isolated chloroplasts)) (UniProt Q8S9L5); assay: co-IP; maltoside-solubilized chloroplast envelope protein extracts (HP22-(His)6-containing complexes); precipitated with antibody against HP65b; Western blot; only the binder purified
T1 sequence: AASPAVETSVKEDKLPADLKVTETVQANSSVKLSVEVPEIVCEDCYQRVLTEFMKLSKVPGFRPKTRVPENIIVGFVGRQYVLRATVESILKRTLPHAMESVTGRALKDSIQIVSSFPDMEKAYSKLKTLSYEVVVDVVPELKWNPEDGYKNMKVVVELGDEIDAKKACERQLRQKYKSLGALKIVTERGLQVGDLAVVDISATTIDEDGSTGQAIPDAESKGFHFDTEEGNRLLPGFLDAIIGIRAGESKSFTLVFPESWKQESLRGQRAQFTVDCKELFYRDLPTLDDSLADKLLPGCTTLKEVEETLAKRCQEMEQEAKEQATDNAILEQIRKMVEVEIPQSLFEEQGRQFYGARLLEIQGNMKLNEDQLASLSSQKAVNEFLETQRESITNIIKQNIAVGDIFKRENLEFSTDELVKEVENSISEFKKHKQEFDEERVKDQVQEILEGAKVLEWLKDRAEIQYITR

[2] = target: T2, hexa-histidine-tagged, 35S-methionine-labeled chloroplast envelope quinone oxidoreductase homologue (ceQORH-(His)6) (UniProt Q9SV68); assay: pull-down; purified 35S-ceQORH-(His)6 incubated 15 min with isolated Arabidopsis chloroplasts at 0.1 mM Mg-GTP and 0.1 mM Mg-ATP; envelope membranes detergent-solubilized (2% Triton X100, 300 mM NaCl, 20 mM imidazole); import intermediate-associated proteins purified by Ni-NTA chromatography, separated by 1D or 2D SDS-PAGE, Coomassie-stained and identified by protein sequencing; only the target purified
T2 sequence (chain, 35S-methionine-labeled): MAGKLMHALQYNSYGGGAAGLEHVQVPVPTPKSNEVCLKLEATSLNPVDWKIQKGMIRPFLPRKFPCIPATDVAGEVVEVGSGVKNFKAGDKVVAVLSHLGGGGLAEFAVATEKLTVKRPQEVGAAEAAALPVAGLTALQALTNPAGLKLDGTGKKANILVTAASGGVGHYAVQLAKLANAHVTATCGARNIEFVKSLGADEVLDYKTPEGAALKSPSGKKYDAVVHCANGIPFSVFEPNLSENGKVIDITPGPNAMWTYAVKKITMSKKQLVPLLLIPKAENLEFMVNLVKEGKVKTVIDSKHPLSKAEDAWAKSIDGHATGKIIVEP

[3] = target: hexa-histidine-tagged HP20 (HP20-(His)6), At4g26670 (Arabidopsis thaliana) (UniProt Q94EH2); assay: co-IP; maltoside-solubilized chloroplast envelope protein extracts (HP20-(His)6-containing complexes); precipitated with antibodies against HP20; Western blot; only the target purified
[4] = target: hexa-histidine-tagged HP22 (HP22-(His)6), At5g55510 (Arabidopsis thaliana) (UniProt Q6NKU9); assay: pull-down; purified HP22-(His)6 imported into chloroplasts from 5 weeks-old plants (0.1 mM Mg-GTP, 2.5 mM Mg-ATP, 15 min); envelope protein complexes purified from ruptured chloroplasts, separated by SDS-PAGE, bands identified by manual or automated sequencing; only the target purified

hexa-histidine-tagged HP22 (HP22-(His)6), At5g55510 (from UniProt Q6NKU9)
binding [1]: binds

cpHSC70
binding [2]: binds

B1: HP65b (At5g55220) (protein, UniProt Q8S9L5 78-547)
chain: T1 sequence
binding [3]: no binding | binding [4]: binds

B2: HP30 (At3g49560) (protein, UniProt Q9SCK3 1-261)
chain: MVVGGGGEGDQKRSSGEMMAMASLFNDQQNPIQQFQVKFKEVETNFKTWLSKQSIPVEAAVVSTMSGVQGAFIGGLMGTLSPEMPQAGVDPQAIASMKQAQALVGGPWVQARNFAAITGVNAGIASVMKRIRGKEDIESAVVAALGSGFAYSLVSQGLQGQPMNAITTAAGFAVFQGVFFKLGERFSKPSTEDPFFTRGRTMLVKLGLEKYEKNFKKGLLTDPTLPLLTDSALKDANIPPGPRLMILDHIQRDPEIKGKRK
binding [3]: binds
